Experimental findings from article PMC12670160, “A drug-repurposing screen of FDA- and EMA-approved drugs identifies two NF-κB inhibitors active against eumycetoma” (Journal of Antimicrobial Chemotherapy, 2025) are described below.

Where a name gives a salt, the structure may show the parent alone. About 130 (2.5%) of roughly 5,300 compounds showed an effect of 50% or more. This is one part of the list.

This experiment has as its system M. mycetomatis strain mm55. The note with it: primary screen, metabolic activity vs growth control; 96 h, 2 µM; inhibitor.
For the compound `CN1C(=O)c2c(nn(Cc3ccc(-c4cccc(F)n4)cc3)c2Nc2ccccc2)N2C1=N[C@@H]1CCC[C@@H]12` [ONC0002210, iti214], the “% viability” value is given as 93.79%.

Turning to `CC(C)C(=O)OC[C@@]1(N=[N+]=[N-])O[C@@H](n2ccc(N)nc2=O)[C@H](OC(=O)C(C)C)[C@@H]1OC(=O)C(C)C` [ONC0001112, balapiravir], the “% viability” value came out at 67.01%.

Consider `COC(=O)[C@H](c1ccccc1Cl)N1CCc2sccc2C1` [ONC0002451, clopidogrel sulfate], for which the “% viability” value turned out to be 93.13%.

With `O=C(O)CCN(O)C(=O)CCCCCCCCC1CC1` [ONC0003551, tce5002], the “% viability” value is given as 124.5%.

Take `CCCOCCn1c(=O)c(N2CCN(CCO)CC2)nc2cnc(-c3ccc(OC)nc3)cc21` [ONC0001952, pf03049423]: the “% viability” value worked out at 82.32%.

Regarding `NC(=O)N[C@@H](CCC(=O)O)C(=O)O` [ONC0005335, carglumic acid], the “% viability” value amounted to 123.9%.

As for `O=C1NC(=O)/C(=C\c2cccc(C(F)(F)F)c2)S1` [ONC0004444, smi4a], the “% viability” value is 130.7%.

With `CN1C/C=C/CCOc2cccc(c2)-c2ccnc(n2)Nc2cccc(c2)C1` [ONC0001026, sb1317], the “% viability” value was 86.64%.

For `CCCCC1CCC(c2nc(-c3ccncc3)no2)CC1` (centres unmarked) [ONC0002588, psn375963], the “% viability” value amounted to 57.7%.

For the compound `Clc1ccc(C(OCCN2CCCCC2)c2ccccc2)cc1` (centres unmarked) [ONC0002432, cloperastine hydrochloride], the “% viability” value is on record as 104.4%.

On to `C1Cc2[nH]nc(-c3nnn[nH]3)c2C1` [ONC0001195, mk0354], for which the “% viability” value was found to be 106.7%.

For `CCc1cc2cc(OC)c(OC)cc2c(Cc2ccccc2)n1` [ONC0003645, moxaverine], the “% viability” value was determined as 67.43%.

In the case of `NS(=O)(=O)Nc1ncnc(OCCOc2ncc(Br)cn2)c1-c1ccc(Br)cc1` [ONC0002096, aprocitentan], the “% viability” value was found to be 65.83%.

In the case of `c1ccc(-c2ncc(CN3CCN(c4ncccn4)CC3)[nH]2)cc1` [ONC0000007, ngd941], the “% viability” value was 130.5%.

In the case of `C[C@@H](NCc1cc(Br)cc2[nH]c(=O)c(=O)[nH]c12)P(=O)(O)O` [ONC0002242, cgp78608], the “% viability” value is on record as 62.66%.

`CC[C@H](/C=C/[C@@H](C)[C@H]1CC[C@H]2[C@@H]3CC=C4C[C@@H](O)CC[C@]4(C)[C@H]3CC[C@]12C)C(C)C` [ONC0004621, stigmasterol stigmasterin]: the “% viability” value was determined as 79.69%.

In the case of `O=C(O)c1cn(-c2ccc(F)cc2)c2cc(N3CCNCC3)c(F)cc2c1=O` [ONC0004168, sarafloxacin hydrochloride], the “% viability” value turned out to be 125.6%.
